Test results taken from paper PMC3270039.
No constants are given. Whether binding was seen depends on the method and setting. In cells and extracts the contact can be indirect. Some binding calls cover weakened binding; strength is not graded here.

By UniProt entry, the sequences of proteins in these tests, tags left out. Where a name states a change or a piece, a line headed by the entry shows the natural chain unless it says otherwise.
UniProt Q04207: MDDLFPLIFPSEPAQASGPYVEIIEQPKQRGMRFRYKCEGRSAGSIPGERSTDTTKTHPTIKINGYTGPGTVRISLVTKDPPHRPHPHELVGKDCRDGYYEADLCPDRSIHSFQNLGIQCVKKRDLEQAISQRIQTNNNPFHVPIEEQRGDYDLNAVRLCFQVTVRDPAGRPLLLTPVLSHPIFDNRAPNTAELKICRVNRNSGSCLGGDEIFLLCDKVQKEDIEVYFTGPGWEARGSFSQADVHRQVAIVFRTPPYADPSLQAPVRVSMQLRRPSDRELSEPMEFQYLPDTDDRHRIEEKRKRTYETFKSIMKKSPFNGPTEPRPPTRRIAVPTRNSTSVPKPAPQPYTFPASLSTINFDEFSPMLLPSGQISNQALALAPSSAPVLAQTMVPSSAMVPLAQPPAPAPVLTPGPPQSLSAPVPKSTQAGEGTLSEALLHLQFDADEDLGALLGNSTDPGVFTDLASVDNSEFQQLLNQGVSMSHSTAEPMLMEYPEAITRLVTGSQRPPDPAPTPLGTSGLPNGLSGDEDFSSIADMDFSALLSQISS
UniProt O75582: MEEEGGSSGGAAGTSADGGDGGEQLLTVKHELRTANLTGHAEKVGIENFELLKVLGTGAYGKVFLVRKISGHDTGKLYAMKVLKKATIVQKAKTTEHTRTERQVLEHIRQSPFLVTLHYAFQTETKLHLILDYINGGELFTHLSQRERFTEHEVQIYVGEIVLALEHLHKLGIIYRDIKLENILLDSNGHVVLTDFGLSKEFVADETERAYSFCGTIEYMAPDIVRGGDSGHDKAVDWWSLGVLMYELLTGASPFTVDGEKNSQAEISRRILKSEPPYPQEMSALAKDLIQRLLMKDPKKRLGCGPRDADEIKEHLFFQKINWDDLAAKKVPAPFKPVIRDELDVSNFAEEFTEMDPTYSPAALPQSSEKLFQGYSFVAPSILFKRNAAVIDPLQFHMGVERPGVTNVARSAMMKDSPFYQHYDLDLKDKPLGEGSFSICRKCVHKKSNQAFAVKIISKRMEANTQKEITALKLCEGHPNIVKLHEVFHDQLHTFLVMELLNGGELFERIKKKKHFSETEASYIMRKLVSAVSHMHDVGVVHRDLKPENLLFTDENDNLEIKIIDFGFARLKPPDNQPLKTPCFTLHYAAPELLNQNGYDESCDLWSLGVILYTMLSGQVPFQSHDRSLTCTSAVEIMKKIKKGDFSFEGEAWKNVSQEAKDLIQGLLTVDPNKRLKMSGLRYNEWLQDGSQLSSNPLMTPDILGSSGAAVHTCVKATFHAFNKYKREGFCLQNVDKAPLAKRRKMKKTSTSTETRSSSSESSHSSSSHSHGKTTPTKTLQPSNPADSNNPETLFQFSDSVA
UniProt Q8C050: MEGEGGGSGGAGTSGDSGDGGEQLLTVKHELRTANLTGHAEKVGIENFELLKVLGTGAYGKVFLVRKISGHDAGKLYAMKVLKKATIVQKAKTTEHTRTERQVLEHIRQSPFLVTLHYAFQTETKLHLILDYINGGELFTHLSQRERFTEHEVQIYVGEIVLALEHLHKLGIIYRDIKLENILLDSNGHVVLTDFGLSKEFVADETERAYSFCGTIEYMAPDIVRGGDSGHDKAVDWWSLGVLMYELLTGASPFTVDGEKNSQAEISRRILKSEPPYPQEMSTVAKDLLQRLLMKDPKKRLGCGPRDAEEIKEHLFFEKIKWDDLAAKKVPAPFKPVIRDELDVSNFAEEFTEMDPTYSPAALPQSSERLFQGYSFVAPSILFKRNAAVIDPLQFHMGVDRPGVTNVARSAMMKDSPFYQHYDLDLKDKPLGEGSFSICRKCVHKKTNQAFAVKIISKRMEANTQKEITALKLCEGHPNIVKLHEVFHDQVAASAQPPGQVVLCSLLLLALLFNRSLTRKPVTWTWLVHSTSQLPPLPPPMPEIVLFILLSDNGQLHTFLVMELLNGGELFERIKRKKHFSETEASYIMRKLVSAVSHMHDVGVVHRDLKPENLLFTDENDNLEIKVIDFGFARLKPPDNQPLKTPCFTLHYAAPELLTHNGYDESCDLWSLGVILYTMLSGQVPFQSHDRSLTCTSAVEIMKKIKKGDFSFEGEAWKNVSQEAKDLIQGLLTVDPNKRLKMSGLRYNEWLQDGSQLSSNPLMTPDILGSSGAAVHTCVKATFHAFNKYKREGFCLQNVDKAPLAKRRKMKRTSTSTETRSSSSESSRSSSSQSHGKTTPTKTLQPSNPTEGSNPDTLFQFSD
UniProt Q04206: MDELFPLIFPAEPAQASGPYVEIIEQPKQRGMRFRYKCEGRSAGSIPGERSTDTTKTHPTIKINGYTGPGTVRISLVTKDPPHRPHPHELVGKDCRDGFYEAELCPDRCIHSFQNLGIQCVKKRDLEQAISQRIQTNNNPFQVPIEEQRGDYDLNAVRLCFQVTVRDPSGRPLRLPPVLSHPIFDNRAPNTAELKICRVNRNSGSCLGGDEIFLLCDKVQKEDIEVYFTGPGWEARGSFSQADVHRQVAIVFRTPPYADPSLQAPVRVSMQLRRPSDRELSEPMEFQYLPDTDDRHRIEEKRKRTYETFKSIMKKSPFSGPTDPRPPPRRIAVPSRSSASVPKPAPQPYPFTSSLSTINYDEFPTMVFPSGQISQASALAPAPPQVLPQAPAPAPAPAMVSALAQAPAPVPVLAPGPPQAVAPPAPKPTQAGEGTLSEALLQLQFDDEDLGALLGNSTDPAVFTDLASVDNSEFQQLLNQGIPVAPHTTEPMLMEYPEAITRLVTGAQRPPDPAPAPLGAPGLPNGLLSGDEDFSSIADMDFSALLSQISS
UniProt Q09472: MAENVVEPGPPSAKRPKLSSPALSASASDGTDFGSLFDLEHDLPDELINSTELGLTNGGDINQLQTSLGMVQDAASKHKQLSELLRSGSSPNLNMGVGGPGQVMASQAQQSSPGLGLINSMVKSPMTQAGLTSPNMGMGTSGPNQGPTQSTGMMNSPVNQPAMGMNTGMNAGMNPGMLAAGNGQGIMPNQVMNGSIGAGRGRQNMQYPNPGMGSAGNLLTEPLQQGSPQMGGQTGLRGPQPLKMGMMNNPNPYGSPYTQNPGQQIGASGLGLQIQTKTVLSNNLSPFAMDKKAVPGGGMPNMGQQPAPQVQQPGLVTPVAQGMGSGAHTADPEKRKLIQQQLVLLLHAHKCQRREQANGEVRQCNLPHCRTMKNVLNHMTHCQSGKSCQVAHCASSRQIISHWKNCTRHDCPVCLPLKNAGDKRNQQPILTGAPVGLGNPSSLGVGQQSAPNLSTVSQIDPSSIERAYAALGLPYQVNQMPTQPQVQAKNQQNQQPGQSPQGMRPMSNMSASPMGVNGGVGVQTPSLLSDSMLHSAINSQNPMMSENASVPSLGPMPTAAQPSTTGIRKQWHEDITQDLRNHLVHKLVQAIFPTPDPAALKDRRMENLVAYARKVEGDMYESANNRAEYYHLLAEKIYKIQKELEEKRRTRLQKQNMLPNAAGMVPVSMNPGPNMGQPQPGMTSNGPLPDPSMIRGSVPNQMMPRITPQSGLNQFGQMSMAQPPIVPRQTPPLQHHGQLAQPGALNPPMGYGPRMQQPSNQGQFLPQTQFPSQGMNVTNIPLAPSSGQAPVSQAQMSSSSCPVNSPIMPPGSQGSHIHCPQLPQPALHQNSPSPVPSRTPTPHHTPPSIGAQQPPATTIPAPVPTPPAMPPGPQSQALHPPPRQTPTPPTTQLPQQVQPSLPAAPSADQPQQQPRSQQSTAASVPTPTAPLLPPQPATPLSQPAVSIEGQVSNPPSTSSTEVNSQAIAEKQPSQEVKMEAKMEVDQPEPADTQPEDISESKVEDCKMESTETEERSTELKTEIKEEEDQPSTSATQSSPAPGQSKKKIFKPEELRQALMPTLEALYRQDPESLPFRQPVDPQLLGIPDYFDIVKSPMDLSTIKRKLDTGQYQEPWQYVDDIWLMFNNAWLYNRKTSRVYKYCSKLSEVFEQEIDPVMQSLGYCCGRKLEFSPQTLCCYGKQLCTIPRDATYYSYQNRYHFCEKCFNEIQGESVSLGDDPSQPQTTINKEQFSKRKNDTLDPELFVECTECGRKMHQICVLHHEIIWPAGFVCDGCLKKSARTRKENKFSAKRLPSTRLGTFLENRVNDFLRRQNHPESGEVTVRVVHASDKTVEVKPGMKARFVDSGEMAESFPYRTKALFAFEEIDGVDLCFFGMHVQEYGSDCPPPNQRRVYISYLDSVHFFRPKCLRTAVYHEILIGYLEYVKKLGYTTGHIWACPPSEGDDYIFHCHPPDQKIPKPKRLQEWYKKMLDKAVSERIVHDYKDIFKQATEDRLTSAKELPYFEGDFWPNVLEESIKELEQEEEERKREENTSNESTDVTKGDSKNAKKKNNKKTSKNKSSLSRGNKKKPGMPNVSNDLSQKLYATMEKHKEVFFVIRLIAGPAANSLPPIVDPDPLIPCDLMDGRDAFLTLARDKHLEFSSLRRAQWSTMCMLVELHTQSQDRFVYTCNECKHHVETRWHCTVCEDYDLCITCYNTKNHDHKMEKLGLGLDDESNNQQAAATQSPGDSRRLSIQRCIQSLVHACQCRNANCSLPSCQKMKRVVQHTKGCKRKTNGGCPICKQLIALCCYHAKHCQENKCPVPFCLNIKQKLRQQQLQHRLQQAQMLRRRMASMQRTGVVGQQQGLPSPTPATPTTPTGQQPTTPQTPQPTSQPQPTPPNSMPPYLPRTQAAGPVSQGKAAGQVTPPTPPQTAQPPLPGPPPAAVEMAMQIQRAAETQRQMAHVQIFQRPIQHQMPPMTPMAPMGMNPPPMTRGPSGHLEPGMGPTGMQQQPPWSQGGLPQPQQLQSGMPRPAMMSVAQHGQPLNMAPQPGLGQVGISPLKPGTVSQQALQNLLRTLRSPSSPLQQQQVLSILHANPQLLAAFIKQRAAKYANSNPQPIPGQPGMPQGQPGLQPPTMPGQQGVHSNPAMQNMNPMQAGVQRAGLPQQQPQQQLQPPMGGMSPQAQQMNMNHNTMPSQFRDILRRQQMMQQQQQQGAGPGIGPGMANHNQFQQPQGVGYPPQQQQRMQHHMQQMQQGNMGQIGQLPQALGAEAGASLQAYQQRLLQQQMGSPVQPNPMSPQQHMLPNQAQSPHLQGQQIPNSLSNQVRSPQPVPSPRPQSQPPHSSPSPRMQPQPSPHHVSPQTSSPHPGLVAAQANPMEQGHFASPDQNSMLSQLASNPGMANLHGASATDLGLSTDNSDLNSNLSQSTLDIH

How the values were obtained:
[1] = biological target: RelA/p65 (endogenous, mouse lung) (mouse (endogenous in C57BL/6J lung)) (UniProt Q04207); experiment: co-IP; endogenous proteins; whole lung tissue extract (500 µg) of C57BL/6J mice exposed to air or cigarette smoke (300 mg/m^3 TPM, 3 days); immunoprecipitation with anti-MSK1 or anti-RelA/p65; immunoblot
[2] = biological target: FLAG-MSK1 D195A (N-terminal kinase-dead mutant, from pCMV-FLAG-MSK1 D195A) (UniProt O75582); experiment: co-IP; anti-flag M2 affinity gel on whole cell lysates (250–500 µg) of transiently transfected H292 cells treated with or without CSE (1%) for 1 h; immunoblot with anti-flag and anti-RelA/p65
[3] = biological target: FLAG-MSK1 wild-type (mitogen- and stress-activated kinase 1, from pCMV-FLAG-MSK1 wild-type) (UniProt O75582); experiment: as above
[4] = biological target: Mitogen- and stress-activated kinase 1 (MSK1), native, H292 cells (human (endogenous in H292)) (UniProt O75582); experiment: co-IP; endogenous proteins; H292 nuclear extract (1000 µg), cells treated 1 h with or without CSE (2%), TNFα (10 ng/ml) as positive control; immunoprecipitation with anti-MSK1 or anti-RelA/p65 and protein A/G agarose; immunoblot

binding [1] | binding [2] | binding [3] | binding [4] | Substance
binds |  |  |  | MSK1 (endogenous, mouse lung) (from UniProt Q8C050 1-863) (enzyme)
 | binds | binds | binds | NF-κB RelA/p65 (endogenous, H292 cells) (from UniProt Q04206 1-551)
 |  |  | binds | p300 (coactivator, endogenous, H292 cells) (from UniProt Q09472 1-2414)
